Results are given in words; binding and its absence hold for the method and conditions named.
Molecular target: human Hv1 transmembrane domain (Hv1-TM) (human) (UniProt Q96D96)
Assay: SEC

binding: no binding
B1: human Hv1 transmembrane domain (Hv1-TM) (domain or fragment, UniProt Q96D96 97-223)
chain: SSHRFQVIIICLVVLDALLVLAELILDLKIIQPDKNNYAAMVFHYMSITILVFFMMEIIFKLFVFRLEFFHHKFEILDAVVVVVSFILDIVLLFQEHQFEALGLLILLRLWRVARIINGIIISVKTR

Source: article doi:10.1101/2023.10.27.564100
